Test results reported in PMC6925144, “A prospective compound screening contest identified broader inhibitors for Sirtuin 1” (Scientific Reports, 2019).
Whole data set: some 3,200 compounds, median “TSA(without NAD+) / Primary screening (TSA) / delta Tm (K)” near -0.07, cut for the highest 2% near 0.37. This is one part of the list.

By UniProt entry, the sequences of proteins in these tests, tags left out. Residues count along the entry.
UniProt Q96EB6, 2-747 limits assumed: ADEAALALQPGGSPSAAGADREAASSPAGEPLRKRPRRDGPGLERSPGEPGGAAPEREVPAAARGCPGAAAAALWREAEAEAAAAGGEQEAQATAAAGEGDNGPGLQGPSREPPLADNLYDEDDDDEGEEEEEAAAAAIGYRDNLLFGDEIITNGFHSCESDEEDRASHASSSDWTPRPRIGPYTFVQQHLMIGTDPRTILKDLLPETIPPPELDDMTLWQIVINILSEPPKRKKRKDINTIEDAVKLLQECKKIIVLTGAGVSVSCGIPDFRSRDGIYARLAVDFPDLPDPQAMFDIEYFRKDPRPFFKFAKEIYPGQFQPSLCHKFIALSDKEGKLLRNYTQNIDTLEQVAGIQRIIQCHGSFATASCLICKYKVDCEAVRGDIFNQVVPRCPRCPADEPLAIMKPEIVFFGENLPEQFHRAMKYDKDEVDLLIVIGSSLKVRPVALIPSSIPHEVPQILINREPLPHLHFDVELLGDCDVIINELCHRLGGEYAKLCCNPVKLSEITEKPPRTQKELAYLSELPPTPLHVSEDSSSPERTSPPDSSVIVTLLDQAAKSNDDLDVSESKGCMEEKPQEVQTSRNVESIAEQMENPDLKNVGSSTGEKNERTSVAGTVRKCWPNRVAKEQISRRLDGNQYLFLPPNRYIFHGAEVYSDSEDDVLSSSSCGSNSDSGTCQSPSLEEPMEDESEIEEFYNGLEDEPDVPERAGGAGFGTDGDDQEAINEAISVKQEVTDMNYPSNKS

Target: NAD-dependent deacetylase Sirtuin 1 (human, UniProt Q96EB6)
Assay: primary screen, delta tm
Design: single well (n = 1)
Details: 10 µM
In short: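 Thermal shift of Sirtuin 1 measured without NAD+, compound at 10 µM (n = 1); value is ΔTm, with hits defined as ΔTm > 0.45 K or < −1.5 K. Hits retested at 5, 10, 20 µM (n = 4) and counterscreened on bovine carbonic anhydrase and ABL1 SH2 domain.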

SMILES	TSA(without NAD+) / Primary screening (TSA) / delta Tm (K)
CC1(CN)CC1	0.02 K
FC(F)(F)C1CCCN(c2nsc3ccccc23)C1 (centres unmarked)	0.06 K
N#Cc1ncn(-c2ncnc3ccsc23)n1	0.16 K
Cc1ccc(-c2csc3ncnc(N4CCN(C(=O)Cc5nc(C)cs5)CC4)c23)cc1	-0.12 K
CC(=O)CN1C(=O)c2ccccc2C1=O	-0.08 K
Cc1nc(-c2ccc([N+](=O)[O-])cc2)cs1	-0.43 K
CC1(c2cnccn2)NC(=O)NC1=O (centres unmarked)	-0.03 K
O=C(CC1OC(=O)c2ccccc21)Nc1ccc2c(c1)Cc1ccccc1-2 (centres unmarked)	0.02 K
O=C(CCOc1ccccc1)Nc1ccc(N2CCN(Cc3ccccc3)CC2)cc1	0.15 K
CC1(C)C(=O)Nc2ccccc2N1C(=O)CNc1cccc2c1CCCC2	-0.24 K
O=C(NC1CCCCCC1)c1ccc2c(c1)CC(c1ccccc1)OC2=O (centres unmarked)	0.05 K
CC1CCC(C(N)=O)CN1c1ncnc2ccsc12 (centres unmarked)	-0.08 K
NC(=O)NCc1ccc(C(=O)Nc2nc(-c3c[nH]c(C(N)=O)c3)cs2)cc1	-0.03 K
NC(=O)c1oc2ccccc2c1NC(=O)Cc1ccc(Cl)c(Cl)c1	-0.02 K
CCCOc1ccc(C2C(C(=O)c3ccc(C)o3)=C(O)C(=O)N2CCCN2CCOCC2)cc1 (centres unmarked)	-0.21 K
Cc1nc(C)c(C(=O)C2=C(O)C(=O)N(CCCN3CCOCC3)C2c2ccc(Cl)cc2)s1 (centres unmarked)	-0.08 K
O=c1cc(CSc2nnc(-c3ccccc3)o2)c2cc3c(cc2o1)CCC3	-0.18 K
O=C(COC(=O)/C=C/c1cn(-c2ccccc2)nc1-c1cc2ccccc2oc1=O)NC1CCS(=O)(=O)C1 (centres unmarked)	-0.07 K
COc1ccc(/C=C2/Oc3cc(O)ccc3C2=O)c(OC)c1	-0.12 K
O=C(c1ccccc1)C1CCN(c2ncnc3c2oc2ccccc23)CC1	-0.04 K
Cc1cc(C)c(C(N)=O)c(N2CCC3CCCCC3C2)n1 (centres unmarked)	-0.23 K
CC(C)CC(NC(=O)C#Cc1ccccc1)C(=O)Nc1cc[nH]n1 (centres unmarked)	-0.11 K
O=C(CSc1nnc(-c2sc3ccccc3c2Cl)o1)N1CCN(C(=O)c2ccco2)CC1	-0.03 K

SMILES	TSA(without NAD+) / Primary screening (TSA) / delta Tm (K)
O=C(c1ccco1)N1CCC(Nc2nc(-c3ccccc3)nc3ccccc23)CC1	-0.04 K
NC(=O)c1c(NC(=O)CN2CCCC(CN3CCN(c4ccccn4)CC3)C2)sc2c1CCCC2 (centres unmarked)	-0.12 K
CCN1C(=O)c2oc3ccccc3c(=O)c2C1c1ccc(Cl)cc1 (centres unmarked)	-0.08 K
O=C(CCc1ccccc1)NCCNc1cnccn1	-0.01 K
C=CCn1c(N)nnc1SCC1CC(C(=O)OC)=C(C)O1 (centres unmarked)	-0.02 K
Sc1ccc(Cl)cn1	-0.15 K
CC1CCc2c(sc3ncn(CC(=O)c4ccc5c(c4)CCC5)c(=O)c23)C1 (centres unmarked)	0.19 K
Cc1ccc(C2C(C(=O)c3sc(C)nc3C)=C(O)C(=O)N2CCCN2CCOCC2)cc1 (centres unmarked)	-0.03 K
CC(C)(C)OC(=O)NCC1CCCN1c1ccc(Br)cc1[N+](=O)[O-] (centres unmarked)	-0.03 K
CN(c1ccc(OC(=O)c2cc(Cl)nc3ccccc23)cc1)S(=O)(=O)c1ccccc1	-0.17 K
CCOC(=O)N1CCN(Cc2ccc(OCc3cccnc3)cc2)CC1	-0.03 K
CC(=O)Nc1ccc2c(COC(=O)C34CC5CC(C3)CC(c3ccccc3)(C5)C4)cc(=O)oc2c1	-0.02 K
CCCNC(=O)c1ccc2[nH]c3c(c2c1)CC(C)CC3 (centres unmarked)	0.16 K
CC(C)c1nnc(CSc2nccn2Cc2ccccn2)o1	-0.12 K
CC(N)CC(N)=O (centres unmarked)	-0.14 K
O=C(OCc1nnc(C(=O)NCc2ccc(F)cc2)s1)c1cc2c(s1)CCCC2	-0.21 K
CN1CC(Nc2c(C#N)cnc3ccc(Cl)cc23)CCC1=O (centres unmarked)	-0.02 K
COc1ccc(-c2ccc(/C=C3\NC(=S)NC3=O)o2)c([N+](=O)[O-])c1	-0.07 K
CC(Oc1cccc(/C=C2/CCc3cc(O)ccc3C2=O)c1)C(=O)O (centres unmarked)	-0.02 K
CC(=O)NC12CC3CC(C1)CC(C(=O)OCC(=O)N(CCc1ccccc1)CCc1ccccc1)(C3)C2	-0.05 K
COc1ccc(N(C)S(=O)(=O)c2cccc(C(=O)Nc3ccc(-n4cnnn4)cc3)c2)cc1	0.59 K
CC(C)(C)C(=O)N1CCc2cnccc21	-0.08 K
COCC(=O)N1CCN(Cc2c(O)ccc3ccc(OC)cc23)CC1	-0.12 K

5 neighbouring entries already listed, quoted:
SMILES	TSA(without NAD+) / Primary screening (TSA) / delta Tm (K)
Cc1cc(C)c(C(N)=O)c(N2CCC3CCCCC3C2)n1 (centres unmarked)	-0.23 K
CC(C)CC(NC(=O)C#Cc1ccccc1)C(=O)Nc1cc[nH]n1 (centres unmarked)	-0.11 K
O=C(CSc1nnc(-c2sc3ccccc3c2Cl)o1)N1CCN(C(=O)c2ccco2)CC1	-0.03 K
O=C(c1ccco1)N1CCC(Nc2nc(-c3ccccc3)nc3ccccc23)CC1	-0.04 K
NC(=O)c1c(NC(=O)CN2CCCC(CN3CCN(c4ccccn4)CC3)C2)sc2c1CCCC2 (centres unmarked)	-0.12 K

Further compounds:

SMILES	TSA(without NAD+) / Primary screening (TSA) / delta Tm (K)
Cc1ccccc1-c1nnn(Cc2cc(=O)oc3c(C)c(C)ccc23)n1	-0.12 K
NC(=O)c1cccc(COC(=O)c2ccc3[nH]c(C(F)F)nc3c2)c1	0.02 K
O=C1/C(=C/c2ccc(Br)cc2F)Cc2c(O)cccc21	-0.03 K
COc1ccc(CNC(=S)NC2CCCCC2)cc1OC	-0.23 K
Cc1cc(C=C2C(=O)NC(=S)NC2=O)c(C)n1-c1ccccc1C(F)(F)F	-1.48 K
Nc1nc2cc(C(=O)O)ccc2[nH]1	-0.12 K
CN(c1ccccc1C(N)=O)S(=O)(=O)c1cccc(Cl)c1	-0.17 K
CCCOc1ccc(C2C(C(=O)c3ccc(F)cc3)=C(O)C(=O)N2CCCN2CCOCC2)cc1 (centres unmarked)	0.07 K
Cc1ccccc1-c1cc(-c2ccccc2)c2cc([N+](=O)[O-])ccc2n1	0.29 K
Cc1cc2nc(N3CCC(CNC(=O)OC(C)(C)C)CC3)c3ccccc3n2n1	-0.22 K
CC(NS(=O)(=O)c1cccc(C(=O)OCC(=O)Nc2sccc2C#N)c1)C12CC3CC(CC(C3)C1)C2 (centres unmarked)	0.36 K
COc1ccccc1S(=O)(=O)NCc1ccc(C(=O)NCC23CC4CC(CC(C4)C2)C3)cc1	0.02 K
Cn1c(Cn2nnc3ccccc3c2=O)nc2cc(Cl)ccc21	0.02 K
O=C(CN1CCN(C(=O)c2ccc(-c3ccc(Cl)cc3)o2)CC1)Nc1cccc(F)c1	0.28 K
Cc1nc(-c2ccc(CCNC(=O)c3ccc(-n4cncn4)cc3)s2)cs1	-0.11 K
Cc1cc(C)nc(NS(=O)(=O)c2ccc(NN=C3C(=O)NC(=S)NC3=O)cc2)n1	-0.08 K
NC(=O)c1ccc(C(=O)OCC(=O)c2cc3ccccc3o2)cc1	-0.38 K
Cc1ccc(C)n1-c1sc2c(c1C#N)CCC(C)C2 (centres unmarked)	-0.12 K
Cn1cc(C(N)=O)cc1C(=O)OC1CCc2ccc(F)cc21 (centres unmarked)	-0.01 K
Cc1nc(CN2CCN(Cc3c(-c4ccccc4)nc4sccn34)CC2)cs1	0.02 K
NC(=O)c1ccc(CSc2nc(CC(=O)O)cs2)cc1	-0.03 K
C=CCn1c(SCc2nc(C)c(-c3ccc(Cl)cc3)o2)nnc1-c1ccco1	-0.14 K
CN1CCc2cc(NC(=O)COc3ccc(N(C)S(=O)(=O)c4cccs4)cc3)ccc21	-0.08 K

SMILES	TSA(without NAD+) / Primary screening (TSA) / delta Tm (K)
Cn1c(N)c(N2CCNCC2)c(=O)n(C)c1=O	0.02 K
NCCC1CC1	-0.08 K
O=C(O)C1CC(=O)N(c2ccc(S(=O)(=O)Nc3c(F)cccc3F)cc2)C1 (centres unmarked)	0.03 K
CCN(Cc1ccccc1)C(=O)CSc1nncn1-c1ccccc1	-0.33 K
Cc1ccc(C23CC4CC(CC(C(=O)OC(C)C(=O)Nc5ccc(S(N)(=O)=O)cc5)(C4)C2)C3)cc1C (centres unmarked)	0.48 K
COc1ncnc2c1CN(Cc1c[nH]nc1-c1ccc(F)cc1)CC2	-0.12 K
CCCOc1ccc(C(=O)C2=C(O)C(=O)N(CCCN3CCOCC3)C2c2ccccc2F)cc1 (centres unmarked)	-0.27 K
CC(=O)N1N=C(c2ccc(NS(C)(=O)=O)cc2)CC1c1ccc(F)c(Cl)c1 (centres unmarked)	-0.22 K
Cc1ccc(NC(=O)COC(=O)c2ccc(-n3nnc4ccccc43)c([N+](=O)[O-])c2)cc1C	0.22 K
Cc1nc2ccccc2nc1SCc1cc(=O)n2ccsc2n1	0.02 K
Clc1ccc(C(SCc2ncc(-c3ccccc3)o2)c2ccccc2)cc1 (centres unmarked)	-0.08 K
CN(C)c1noc(C2CC(=O)N(c3ccc(Cl)c(F)c3)C2)n1 (centres unmarked)	-0.13 K
COc1ccc2nc3ccccc3nc2c1N	-0.14 K
Cn1c(-c2ccccc2)c(C(=O)CCl)c2ccccc21	-0.13 K
CN(c1cccc(Cl)c1)S(=O)(=O)c1cccc(C(=O)Oc2ccc3c4c(c(=O)oc3c2)CCC4)c1	0.02 K
NC(=O)C1CCCN(c2ncnc3sc4c(c23)CCCC4)C1 (centres unmarked)	-0.18 K
CCn1c(C(=O)Nc2cccc(CN3C(=O)CNC3=O)c2)cc2ccccc21	0.23 K
COc1cccc(NC(=O)C(Oc2ccc(C(N)=O)cc2)c2ccccc2)c1 (centres unmarked)	-0.08 K
Cc1cnc(C(=O)OCC(=O)N(c2ccccc2)C(C)C)cn1	-0.13 K
Cc1cc(C)nc(NNC(=O)c2cc(-c3ccco3)nc3c(C(N)=O)ncn23)n1	-0.21 K
CCc1ccccc1N1CC(C(=O)Nc2cccc(S(=O)(=O)Nc3ccc(OC)cc3)c2)CC1=O (centres unmarked)	0.02 K
CC(NC(=O)CCn1ccc2ccccc21)C(=O)NC1CCCC1 (centres unmarked)	-0.04 K
O=C(CNC(=O)c1cccs1)NCC(=O)NC1CC1	-0.02 K
